From article PMC3716696 (PLoS ONE, 2013)
Residues, ends and D or L forms follow the SMILES beside them.

Assay: Isotope dilution MS (IDMS) of endogenous SP and SP fragments in spinal cord
Assay type: in vivo
Details: endogenous level, WT mouse spinal cord, IDMS with heavy-labelled peptides, LC-MS/MS after SCX, N = 4

N=C(N)NCCC[C@H](N)C(=O)N1CCC[C@H]1C(=O)N[C@@H](CCCCN)C(=O)N1CCC[C@H]1C(=O)N[C@@H](CCC(N)=O)C(=O)N[C@@H](CCC(N)=O)C(=O)N[C@@H](Cc1ccccc1)C(=O)O [SP1–7] (H-RPKPQQF-OH)
Absolute quantity in the spinal cord, SPC: 1.6 ± 0.5 pmol/g

CSCC[C@H](NC(=O)[C@H](CC(C)C)NC(=O)CNC(=O)[C@H](Cc1ccccc1)NC(=O)[C@H](Cc1ccccc1)NC(=O)[C@H](CCC(N)=O)NC(=O)[C@H](CCC(N)=O)NC(=O)[C@@H]1CCCN1C(=O)[C@H](CCCCN)NC(=O)[C@@H]1CCCN1C(=O)[C@@H](N)CCCNC(=N)N)C(N)=O [SP, Substance P]
Absolute quantity in the spinal cord, SPC: 105.9 ± 8.5 pmol/g
